For at least one entry, the source does not settle the construct or the ends of the probe. Protein sequences can lack the tags named with them.
Test system: T1, REC2 recombinase (Ustilago maydis)
T1 sequence (limits assumed): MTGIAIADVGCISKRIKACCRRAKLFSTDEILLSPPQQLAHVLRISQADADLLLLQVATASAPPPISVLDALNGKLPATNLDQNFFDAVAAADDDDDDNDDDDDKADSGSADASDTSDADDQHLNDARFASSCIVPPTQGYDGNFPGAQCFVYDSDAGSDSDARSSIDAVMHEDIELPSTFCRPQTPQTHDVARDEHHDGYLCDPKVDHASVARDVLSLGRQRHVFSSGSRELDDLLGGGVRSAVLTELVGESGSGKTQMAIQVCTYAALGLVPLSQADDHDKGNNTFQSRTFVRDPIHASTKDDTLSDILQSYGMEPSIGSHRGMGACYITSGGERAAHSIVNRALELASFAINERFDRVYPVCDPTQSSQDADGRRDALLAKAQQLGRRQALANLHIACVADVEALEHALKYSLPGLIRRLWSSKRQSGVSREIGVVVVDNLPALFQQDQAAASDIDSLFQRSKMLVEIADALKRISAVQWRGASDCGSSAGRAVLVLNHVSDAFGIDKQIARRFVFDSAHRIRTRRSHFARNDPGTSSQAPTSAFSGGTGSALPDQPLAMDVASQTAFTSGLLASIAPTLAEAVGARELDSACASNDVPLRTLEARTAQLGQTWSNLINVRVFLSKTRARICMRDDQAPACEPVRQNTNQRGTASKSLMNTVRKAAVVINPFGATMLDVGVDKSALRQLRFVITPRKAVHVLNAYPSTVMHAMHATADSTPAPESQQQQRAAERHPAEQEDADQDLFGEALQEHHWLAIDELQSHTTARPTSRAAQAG
Test: filter binding
Details: 15 contiguous RNA nucleotides in one strand; joint molecules with ssDNA circles; ATP, 10 mM MgCl2; reducing RNA length lowered pairing, not to zero at 3 RNA residues; purified recombinant protein; label: 32P

“TAGAGGATCCCCGGGTTTTCCCGGGGAUCCUCUAGAGTTTTCTC [chimeric RNA/DNA hairpin duplex]” was tested, and the “activity on this sequence” value was “active”.
